These results are taken from patent US20260097076A1 (ELPIS BIOPHARMACEUTICALS, published 2026).

The chains behind the UniProt entries cited, without tags or fusion partners.
UniProt Q02223: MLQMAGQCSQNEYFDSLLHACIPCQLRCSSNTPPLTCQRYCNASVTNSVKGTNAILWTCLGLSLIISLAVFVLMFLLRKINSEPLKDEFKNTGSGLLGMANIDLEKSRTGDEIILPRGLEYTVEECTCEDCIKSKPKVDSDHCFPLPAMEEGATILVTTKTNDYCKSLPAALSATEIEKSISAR

Where a chain is given by its changes, count along the chain named. In names and notes the source's numbering stands. No constants are given. Whether binding was seen depends on the method and setting. Some entries that bind do so weakly or less than the wild type.

The labels stand for the following.
B1: BC-05 (anti-BCMA antibody in scFv format) (scFv)
scFv: QMQLVQSGGGVVQPGGSLRLSCAASGFTFSSYGMHWVRQAPGKGLEWVAFIRYDGSNKYYADSVKGRFTISRDNSKNTLYLQMNSLRAEDTAVYYCAKDWEDPLYYYDTPFWGQGTLVTVSSGGGGSGGGGSGGGGSVIWMTQSPSSVSASVGDIITITCQASQDINNYLNWYQLKPGKAPKLLIYDASNVETGVPSRFSGSGSGTDFTFTISSLQPEDTATYYCQQYDKLPYTFGQGTKLEIK
notes: Human scFv from mRNA display, VH-(G4S)3-VL, expressed in E. coli periplasm, His-purified; not shown: C-terminal flag and 6xHis tag
B2: BC-06 (anti-BCMA antibody in scFv format) (scFv)
scFv: EVQLVESGGGLVQPGRSLRLSCAASGFTFDDYAMHWVRQAPGKGLEWVSGISWNSGSIGYADSVKGRFTISRDNAKNSLYLQMNSLRAEDTALYYCAKVQPPGAFDIWGQGTMVTVSSGGGGSGGGGSGGGGSDIQLTQSPSFLSASVGDRVSITCRSTQGISSYLGWYQQKPGKAPKLLIYATSTLQSGVPSRFSGSGSGTEFTLTISSLQPEDFATYYCQQLYSFGQGTKLEIK
notes: Human scFv from mRNA display, VH-(G4S)3-VL, expressed in E. coli periplasm, His-purified; also called clone BC-06; not shown: C-terminal flag and 6xHis tag
B3: BC-07 (anti-BCMA antibody in scFv format) (scFv)
scFv: B2 scFv with P101S
notes: as for B1
B4: BC-08 (anti-BCMA antibody in scFv format) (scFv)
scFv: QVQLVQSGGGVVQPGRSLRLSCAASGFTFSSYAMHWVRQAPGKGLEWVAVISYDGSNKYYADSVKGRFTISRDNAENSVYLQMNSLRAEDTAVYYCARDEHQVVPNYRFDFWGQGSQVTVSSGGGGSGGGGSGGGGSQLVLTQPPSASGTPGQRVTISCSGSGSNIGSNDVSWYQQIPGTASKLLIYWNDQRPSGVPDRFSGSKSGTSASLAISGLQSEDEADYYCAAWDDSLNGWVFGGGTKLTVL
notes: as for B1
B5: BC-02 (anti-BCMA antibody in scFv format) (scFv)
scFv: QVQLVQSGGGVVQPGGSLRLSCAASGFTFSSYGMHWVRQAPGKVLEWVAFIRYDGSNKYYADSVKGRFTISRDNSKNTLYLQMNSLRAEDTAVYYCAKDWDYYDSSGYYPDALGIWGQGTMVTVSSGGGGSGGGGSGGGGSEIVLTQSPSSLSASVGDRVTITCQASQDISNYLNWYQQKPGKAPKLLIYDASNLETGVPSRFSGSGSGTDFTFTISSLQPEDIATYYCQQYDNLPFTFGPGTKVDIK
notes: as for B1

Substrate in the first assay: B Cell Maturation Antigen (BCMA) on cells (UniProt Q02223)
The assay is described as follows: flow cytometry, 200 nM scFv on RPMI8226 cells (endogenous BCMA), median fluorescence. In general terms: In flow cytometry, cells or beads pass a laser one at a time.
Consider B1, for which the binding result is reported as “binds”.
On to B2, for which the binding entry is listed as “binds”.
B3: the binding result is “binds”.
As to B4, the binding result is recorded as “binds”.

Substrate in a further assay: B Cell Maturation Antigen (BCMA) on cells (UniProt Q02223)
The assay is described as follows: flow cytometry, legend of FIG. 1.
Consider B1, for which the binding entry was “binds”.
On the same count and under the same terms, next, B2: “binds”.
Take B3: the binding entry is “binds”.
The same measure, in the same setting: the same measure for B4: “binds”; for B5: “binds”.

Substrate in another assay: B Cell Maturation Antigen (BCMA) on cells (UniProt Q02223)
The experiment in a line: flow cytometry, 200 nM scFv on MM1.S cells (endogenous BCMA), median fluorescence.
As for B1, the binding entry is given as “binds”.
B2: the binding entry was “binds”.
For B3, the binding result is “binds”.
As for B4, the binding result is on record as “binds”.

Substrate in another assay: B Cell Maturation Antigen (BCMA) on cells (UniProt Q02223)
The assay is described as follows: flow cytometry, 200 nM scFv on BCMA/CHOK1 cells, anti-His biotin/streptavidin Alexa Fluor 647 detection, median fluorescence.
Consider B1, for which the binding entry is “binds”.
As for B2, the binding entry is reported as “binds”.
On the same count and under the same terms, the same measure for B3: “binds”; for B4: “binds”.

Substrate in the next assay: B Cell Maturation Antigen (BCMA) on cells (UniProt Q02223)
The assay is described as follows: flow cytometry, 200 nM scFv on H929 cells (endogenous BCMA), median fluorescence.
Regarding B1, the binding entry is reported as “binds”.
Same read-out and setting: next, B2: “binds”; B3: “binds”; B4: “binds”.

Substrate in another assay: B Cell Maturation Antigen (BCMA) on cells (UniProt Q02223)
The experiment in a line: flow cytometry, 200 nM scFv on H929, MM1.S and RPMI8226 cells (endogenous BCMA).
For the molecule B1, the binding result is recorded as “binds”.
Same read-out and setting: the same measure for B2: “binds”.
In the case of B3, the binding entry is given as “binds”.
For B4, the binding result is “binds”.
B5: the binding result is “binds”.

Substrate in another assay: B Cell Maturation Antigen (BCMA) on cells (UniProt Q02223)
The experiment in a line: flow cytometry, 200 nM scFv on BCMA/CHOK1 and CHOK1 cells.
Regarding B1, the binding result is on record as “binds”.
Regarding B2, the binding entry is on record as “binds”.
Still for that read-out and setting: the same measure for B3: “binds”; for B4: “binds”.
On the same count and under the same terms, the same measure for B5: “binds”.
